No constants are given. Whether binding was seen depends on the method and setting. Binding seen in cells or lysates may run through a third protein. Tags and fused reporters may be left off the sequences shown.
Biological target: T1, Flag-tagged mouse GALNTL5, full length (mouse) (UniProt Q9D4M9)
T1 sequence (chain, N-glycans at the N-glycosylation sites N68, N140, N353 and N390): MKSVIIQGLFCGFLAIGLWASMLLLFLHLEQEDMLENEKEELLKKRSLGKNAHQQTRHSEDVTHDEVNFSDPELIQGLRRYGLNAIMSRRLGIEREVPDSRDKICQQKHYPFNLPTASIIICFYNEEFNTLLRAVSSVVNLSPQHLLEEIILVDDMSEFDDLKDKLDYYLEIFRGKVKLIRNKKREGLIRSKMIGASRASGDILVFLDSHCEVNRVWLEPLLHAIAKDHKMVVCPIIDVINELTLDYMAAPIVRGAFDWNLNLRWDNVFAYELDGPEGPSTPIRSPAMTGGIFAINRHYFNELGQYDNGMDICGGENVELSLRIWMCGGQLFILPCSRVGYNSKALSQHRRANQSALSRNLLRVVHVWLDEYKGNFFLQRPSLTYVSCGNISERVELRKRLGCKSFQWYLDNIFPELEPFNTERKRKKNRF
Experiment: co-IP; GC-2spd(ts) cells transiently transfected with Flag-tagged mouse GALNTL5 cDNAs, cultured overnight; IP of lysates with the DDDDK-tagged Protein Magnetic purification Kit (anti-Flag), western blot for the chaperones

**Q.** For HSP70 (mouse, endogenous), which binding is on record?
**A.** The binding was “no binding”.
